Reference: publication PMC12307642
No constants are given. Whether binding was seen depends on the method and setting. Binding seen in cells or lysates may run through a third protein. Some binding calls cover weakened binding; strength is not graded here. Where a sequence is shown, tags or fusion partners need not be part of it.

Chains of the proteins cited; added tags and fusions are not shown. Lines headed by an entry give the natural chain unless they say otherwise; changes in a name come on top.
UniProt P06733: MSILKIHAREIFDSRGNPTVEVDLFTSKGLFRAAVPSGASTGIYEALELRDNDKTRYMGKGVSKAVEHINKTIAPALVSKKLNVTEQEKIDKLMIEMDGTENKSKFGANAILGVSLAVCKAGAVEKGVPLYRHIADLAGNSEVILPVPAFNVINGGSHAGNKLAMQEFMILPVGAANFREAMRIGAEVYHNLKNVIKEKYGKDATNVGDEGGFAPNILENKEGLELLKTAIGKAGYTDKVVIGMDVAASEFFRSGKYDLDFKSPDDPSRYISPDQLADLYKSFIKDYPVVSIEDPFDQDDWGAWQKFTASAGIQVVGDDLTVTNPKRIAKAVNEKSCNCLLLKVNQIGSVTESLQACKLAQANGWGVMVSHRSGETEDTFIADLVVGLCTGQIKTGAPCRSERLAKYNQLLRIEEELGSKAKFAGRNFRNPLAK

T1: Flag-tagged circUBE2G1-99aa (human) (UniProt P62253)
T1 sequence: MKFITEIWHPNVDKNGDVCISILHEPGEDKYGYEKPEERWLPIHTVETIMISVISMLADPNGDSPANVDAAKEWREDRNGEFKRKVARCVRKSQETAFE

B1: Flag-tagged circUBE2G1-99aa (protein, UniProt P62253 72-170)
chain: T1 sequence

Legend:
[1] = molecular target: T1, Flag-tagged circUBE2G1-99aa (human); assay: co-IP; Pierce Co-IP kit; cell lysates incubated with primary antibody immobilised on AminoLink Plus Coupling Resin overnight at 4 °C, three washes, eluates analysed by Western blot; done in both directions and with truncation variants of both proteins
[2] = molecular target: enolase 1 (ENO1) (human (endogenous in HGC-27)) (UniProt P06733); assay: as above

Row | Molecule | binding [1] | binding [2]
1 | enolase 1 (ENO1) (from UniProt P06733 1-434) (enzyme) | binds | 
2 | TIM barrel domain of ENO1 (residues 140-434) (from UniProt P06733 140-434) (domain or fragment) | binds | 
3 | B1 |  | binds
